Binding data for one molecule are collected here from article PMC10307871.

The chains behind the UniProt entries cited, without tags or fusion partners.
UniProt Q9H4L4: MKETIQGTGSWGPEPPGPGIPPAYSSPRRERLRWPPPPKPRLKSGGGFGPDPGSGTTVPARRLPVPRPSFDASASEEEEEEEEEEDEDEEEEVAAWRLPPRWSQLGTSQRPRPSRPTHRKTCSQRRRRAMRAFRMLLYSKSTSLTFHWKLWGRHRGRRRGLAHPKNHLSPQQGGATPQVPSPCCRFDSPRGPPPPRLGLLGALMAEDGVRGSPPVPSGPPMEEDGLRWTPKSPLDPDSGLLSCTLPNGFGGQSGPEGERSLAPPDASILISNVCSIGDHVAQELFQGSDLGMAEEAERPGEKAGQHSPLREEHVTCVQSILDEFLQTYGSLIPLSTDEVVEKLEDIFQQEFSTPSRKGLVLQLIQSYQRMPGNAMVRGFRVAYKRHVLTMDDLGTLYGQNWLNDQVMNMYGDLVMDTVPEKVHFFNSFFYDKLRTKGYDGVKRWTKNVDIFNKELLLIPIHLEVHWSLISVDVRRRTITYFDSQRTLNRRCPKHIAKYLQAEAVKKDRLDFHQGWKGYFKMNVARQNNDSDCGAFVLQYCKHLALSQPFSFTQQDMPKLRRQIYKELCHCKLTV

Results are given in words; binding and its absence hold for the method and conditions named. In cells and extracts the contact can be indirect. A yes stands for co-enrichment or nearness to the bait. Other partners may have been found.

For this experiment, the target named is SUMO specific peptidase 3 (SENP3), endogenous (human (endogenous in Patu-8988t)) (UniProt Q9H4L4). Put plainly: affinity purification with mass spectrometry; Patu-8988t cell lysate immunoprecipitated with control IgG or anti-SENP3 antibody and protein A/G agarose beads; Coomassie staining and mass spectrometry.

B1: dyskerin pseudouridine synthase (DKC1), endogenous (protein, UniProt O60832 1-514)
chain: MADAEVIILPKKHKKKKERKSLPEEDVAEIQHAEEFLIKPESKVAKLDTSQWPLLLKNFDKLNVRTTHYTPLACGSNPLKREIGDYIRTGFINLDKPSNPSSHEVVAWIRRILRVEKTGHSGTLDPKVTGCLIVCIERATRLVKSQQSAGKEYVGIVRLHNAIEGGTQLSRALETLTGALFQRPPLIAAVKRQLRVRTIYESKMIEYDPERRLGIFWVSCEAGTYIRTLCVHLGLLLGVGGQMQELRRVRSGVMSEKDHMVTMHDVLDAQWLYDNHKDESYLRRVVYPLEKLLTSHKRLVMKDSAVNAICYGAKIMLPGVLRYEDGIEVNQEIVVITTKGEAICMAIALMTTAVISTCDHGIVAKIKRVIMERDTYPRKWGLGPKASQKKLMIKQGLLDKHGKPTDSTPATWKQEYVDYSESAKKEVVAEVVKAPQVVAEAAKTAKRKRESESESDETPPAAPQLIKKEKKKSKKDKKAKAGLESGAEPGDGDSDTTKKKKKKKKAKEVELVSE
As for B1, the binding result is “binds”.
